Measured values reported in the supplement of paper PMC10849652.
The other results are listed elsewhere or left out. Residues, ends and D or L forms follow the SMILES beside them. *: point of attachment. Cbz = O=C(OCc1ccccc1)*

Sequences of proteins named here, by UniProt entry; tags and fusion partners are left off. A change or cut given only in a name is not applied to a line headed by its entry.
UniProt P43355: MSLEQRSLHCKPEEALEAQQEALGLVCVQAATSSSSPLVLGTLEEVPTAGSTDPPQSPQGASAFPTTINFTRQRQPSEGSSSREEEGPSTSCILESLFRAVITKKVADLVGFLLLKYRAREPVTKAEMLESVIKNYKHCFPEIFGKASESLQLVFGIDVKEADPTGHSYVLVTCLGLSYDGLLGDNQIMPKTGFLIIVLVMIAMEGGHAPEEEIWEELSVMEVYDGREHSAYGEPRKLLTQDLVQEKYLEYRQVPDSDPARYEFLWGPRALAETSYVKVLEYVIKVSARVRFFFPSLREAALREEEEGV
UniProt Q9Y6D9: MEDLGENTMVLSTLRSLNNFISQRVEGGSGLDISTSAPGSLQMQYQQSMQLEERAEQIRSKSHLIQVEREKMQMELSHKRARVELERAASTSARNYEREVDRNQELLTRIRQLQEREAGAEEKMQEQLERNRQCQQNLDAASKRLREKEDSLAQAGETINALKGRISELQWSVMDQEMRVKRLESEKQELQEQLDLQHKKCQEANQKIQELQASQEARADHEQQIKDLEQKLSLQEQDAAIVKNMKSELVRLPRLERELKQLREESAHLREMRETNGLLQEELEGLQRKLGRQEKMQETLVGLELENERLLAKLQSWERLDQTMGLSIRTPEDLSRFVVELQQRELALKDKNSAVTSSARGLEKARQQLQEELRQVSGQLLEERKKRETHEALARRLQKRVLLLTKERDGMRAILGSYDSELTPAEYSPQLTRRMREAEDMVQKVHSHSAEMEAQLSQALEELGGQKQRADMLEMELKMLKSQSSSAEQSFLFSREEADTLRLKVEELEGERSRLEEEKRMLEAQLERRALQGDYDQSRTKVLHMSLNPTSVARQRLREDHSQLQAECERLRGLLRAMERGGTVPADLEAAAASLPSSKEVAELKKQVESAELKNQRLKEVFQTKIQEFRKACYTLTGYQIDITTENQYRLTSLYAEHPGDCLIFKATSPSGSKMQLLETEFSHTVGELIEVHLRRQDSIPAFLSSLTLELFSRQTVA
UniProt O95819: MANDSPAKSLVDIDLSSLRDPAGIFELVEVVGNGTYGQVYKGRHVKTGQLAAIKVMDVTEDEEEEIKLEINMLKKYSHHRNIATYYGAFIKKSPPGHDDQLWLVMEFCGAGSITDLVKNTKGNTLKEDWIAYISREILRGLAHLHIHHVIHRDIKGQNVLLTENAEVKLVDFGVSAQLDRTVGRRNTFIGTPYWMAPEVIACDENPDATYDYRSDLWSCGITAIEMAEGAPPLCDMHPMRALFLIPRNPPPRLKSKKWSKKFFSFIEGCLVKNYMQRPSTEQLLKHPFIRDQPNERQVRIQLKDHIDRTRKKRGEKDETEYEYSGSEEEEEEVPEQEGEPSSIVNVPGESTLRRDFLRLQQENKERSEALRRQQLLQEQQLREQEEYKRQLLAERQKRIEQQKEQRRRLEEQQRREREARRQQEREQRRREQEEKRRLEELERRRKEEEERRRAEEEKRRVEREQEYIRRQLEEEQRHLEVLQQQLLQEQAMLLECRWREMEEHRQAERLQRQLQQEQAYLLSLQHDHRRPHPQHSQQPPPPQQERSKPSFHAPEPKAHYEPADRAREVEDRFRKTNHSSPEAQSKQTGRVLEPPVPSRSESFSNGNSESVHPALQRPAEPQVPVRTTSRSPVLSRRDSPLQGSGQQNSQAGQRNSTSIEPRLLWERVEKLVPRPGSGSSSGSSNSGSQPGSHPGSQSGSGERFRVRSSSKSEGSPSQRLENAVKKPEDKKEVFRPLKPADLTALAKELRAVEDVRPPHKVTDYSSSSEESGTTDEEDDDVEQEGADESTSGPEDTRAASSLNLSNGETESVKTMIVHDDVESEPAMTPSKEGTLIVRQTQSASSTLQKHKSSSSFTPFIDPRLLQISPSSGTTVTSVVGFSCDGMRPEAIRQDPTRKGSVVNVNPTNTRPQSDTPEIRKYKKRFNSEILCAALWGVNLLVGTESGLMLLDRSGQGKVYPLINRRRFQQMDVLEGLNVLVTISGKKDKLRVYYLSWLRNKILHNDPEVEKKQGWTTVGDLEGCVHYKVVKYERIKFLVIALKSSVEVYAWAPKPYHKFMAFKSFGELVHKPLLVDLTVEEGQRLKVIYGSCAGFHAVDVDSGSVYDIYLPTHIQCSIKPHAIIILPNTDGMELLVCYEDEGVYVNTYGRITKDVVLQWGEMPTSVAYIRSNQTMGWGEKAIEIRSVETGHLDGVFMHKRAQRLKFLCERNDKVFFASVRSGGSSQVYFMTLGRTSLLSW
UniProt Q8IVH8: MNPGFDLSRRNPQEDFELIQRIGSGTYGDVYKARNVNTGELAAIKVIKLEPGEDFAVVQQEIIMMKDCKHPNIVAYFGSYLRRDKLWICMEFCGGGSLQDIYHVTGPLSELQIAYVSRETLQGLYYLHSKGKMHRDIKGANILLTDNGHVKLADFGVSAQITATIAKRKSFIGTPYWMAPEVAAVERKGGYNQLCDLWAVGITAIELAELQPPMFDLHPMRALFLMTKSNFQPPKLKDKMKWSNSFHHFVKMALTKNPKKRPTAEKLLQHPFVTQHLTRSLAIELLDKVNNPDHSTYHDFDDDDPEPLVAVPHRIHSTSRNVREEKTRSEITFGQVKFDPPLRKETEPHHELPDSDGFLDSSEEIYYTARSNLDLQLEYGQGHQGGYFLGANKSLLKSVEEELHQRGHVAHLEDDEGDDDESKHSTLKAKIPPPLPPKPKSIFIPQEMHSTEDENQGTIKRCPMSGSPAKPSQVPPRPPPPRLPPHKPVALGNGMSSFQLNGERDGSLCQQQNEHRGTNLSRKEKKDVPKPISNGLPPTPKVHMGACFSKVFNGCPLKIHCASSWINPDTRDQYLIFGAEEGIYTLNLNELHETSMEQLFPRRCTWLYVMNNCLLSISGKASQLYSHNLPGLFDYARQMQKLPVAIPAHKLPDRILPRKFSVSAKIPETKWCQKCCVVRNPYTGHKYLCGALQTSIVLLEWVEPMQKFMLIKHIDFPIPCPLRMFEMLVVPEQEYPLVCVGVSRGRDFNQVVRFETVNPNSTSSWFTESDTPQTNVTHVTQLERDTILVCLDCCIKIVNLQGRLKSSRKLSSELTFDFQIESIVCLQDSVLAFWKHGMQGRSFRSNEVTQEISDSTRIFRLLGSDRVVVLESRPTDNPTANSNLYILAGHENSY
UniProt Q12851: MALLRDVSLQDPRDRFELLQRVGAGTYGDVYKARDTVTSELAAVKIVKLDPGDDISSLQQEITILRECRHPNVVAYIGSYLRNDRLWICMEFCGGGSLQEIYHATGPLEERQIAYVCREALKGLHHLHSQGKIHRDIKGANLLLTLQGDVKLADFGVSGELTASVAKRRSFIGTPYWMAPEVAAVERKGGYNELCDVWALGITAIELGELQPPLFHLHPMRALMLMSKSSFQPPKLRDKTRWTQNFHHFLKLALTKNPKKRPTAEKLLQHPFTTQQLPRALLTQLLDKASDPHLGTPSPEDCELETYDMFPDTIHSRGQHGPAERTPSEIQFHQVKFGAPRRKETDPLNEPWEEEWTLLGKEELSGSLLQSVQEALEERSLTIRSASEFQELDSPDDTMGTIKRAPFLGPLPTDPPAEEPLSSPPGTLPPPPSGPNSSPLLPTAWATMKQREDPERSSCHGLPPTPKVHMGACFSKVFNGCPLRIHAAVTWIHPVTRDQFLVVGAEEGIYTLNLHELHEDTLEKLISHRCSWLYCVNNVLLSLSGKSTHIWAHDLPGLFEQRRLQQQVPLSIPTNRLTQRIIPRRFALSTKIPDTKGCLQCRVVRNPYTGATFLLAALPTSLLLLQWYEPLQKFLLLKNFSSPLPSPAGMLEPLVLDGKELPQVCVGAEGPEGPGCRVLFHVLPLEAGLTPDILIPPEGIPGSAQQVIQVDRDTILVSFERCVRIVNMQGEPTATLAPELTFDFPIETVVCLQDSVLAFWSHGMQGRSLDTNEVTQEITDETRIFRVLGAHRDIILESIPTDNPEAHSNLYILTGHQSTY
UniProt P43362: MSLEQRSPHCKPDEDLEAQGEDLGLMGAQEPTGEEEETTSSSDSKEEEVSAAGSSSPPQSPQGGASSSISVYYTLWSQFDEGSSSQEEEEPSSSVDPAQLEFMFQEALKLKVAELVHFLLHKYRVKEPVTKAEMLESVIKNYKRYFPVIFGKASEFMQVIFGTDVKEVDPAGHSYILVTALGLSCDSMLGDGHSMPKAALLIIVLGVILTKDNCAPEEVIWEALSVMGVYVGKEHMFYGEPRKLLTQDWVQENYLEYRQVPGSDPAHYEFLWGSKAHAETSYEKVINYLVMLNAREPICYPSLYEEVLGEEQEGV
UniProt O43325: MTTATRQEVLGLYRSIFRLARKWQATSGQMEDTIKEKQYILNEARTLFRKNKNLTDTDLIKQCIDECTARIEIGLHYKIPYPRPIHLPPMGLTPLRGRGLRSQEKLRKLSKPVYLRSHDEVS
UniProt Q99759: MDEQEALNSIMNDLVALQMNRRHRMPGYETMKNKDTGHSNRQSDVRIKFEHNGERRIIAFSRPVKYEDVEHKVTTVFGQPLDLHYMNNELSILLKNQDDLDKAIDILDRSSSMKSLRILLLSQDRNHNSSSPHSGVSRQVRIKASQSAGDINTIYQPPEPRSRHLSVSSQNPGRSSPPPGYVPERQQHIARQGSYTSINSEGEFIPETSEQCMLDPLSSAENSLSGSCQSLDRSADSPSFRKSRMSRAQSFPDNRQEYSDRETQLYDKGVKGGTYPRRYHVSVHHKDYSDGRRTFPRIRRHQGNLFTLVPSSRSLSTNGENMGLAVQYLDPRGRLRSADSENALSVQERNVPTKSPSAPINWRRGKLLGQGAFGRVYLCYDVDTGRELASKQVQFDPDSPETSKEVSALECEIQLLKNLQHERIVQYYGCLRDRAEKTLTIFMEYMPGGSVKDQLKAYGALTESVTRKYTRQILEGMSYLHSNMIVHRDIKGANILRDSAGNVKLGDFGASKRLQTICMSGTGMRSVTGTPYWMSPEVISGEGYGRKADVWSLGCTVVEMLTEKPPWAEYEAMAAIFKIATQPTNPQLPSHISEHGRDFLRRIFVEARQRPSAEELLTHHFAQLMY
UniProt Q86X29: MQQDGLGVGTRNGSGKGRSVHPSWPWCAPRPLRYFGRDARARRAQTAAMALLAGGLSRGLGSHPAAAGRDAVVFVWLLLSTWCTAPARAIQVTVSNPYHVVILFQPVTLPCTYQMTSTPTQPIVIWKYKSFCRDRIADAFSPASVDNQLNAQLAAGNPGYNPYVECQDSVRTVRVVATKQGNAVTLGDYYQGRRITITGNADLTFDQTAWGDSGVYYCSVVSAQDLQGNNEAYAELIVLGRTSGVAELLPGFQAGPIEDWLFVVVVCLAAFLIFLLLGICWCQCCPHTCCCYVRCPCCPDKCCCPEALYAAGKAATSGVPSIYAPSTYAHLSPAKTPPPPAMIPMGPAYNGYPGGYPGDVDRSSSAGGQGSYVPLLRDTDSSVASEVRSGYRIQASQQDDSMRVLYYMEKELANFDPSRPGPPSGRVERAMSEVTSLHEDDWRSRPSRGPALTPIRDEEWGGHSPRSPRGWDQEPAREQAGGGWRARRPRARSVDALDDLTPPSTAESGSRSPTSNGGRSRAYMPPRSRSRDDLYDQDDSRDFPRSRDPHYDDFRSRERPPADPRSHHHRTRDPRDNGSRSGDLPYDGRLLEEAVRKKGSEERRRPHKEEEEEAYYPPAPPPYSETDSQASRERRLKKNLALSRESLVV
UniProt P10636, whole entry, looked up: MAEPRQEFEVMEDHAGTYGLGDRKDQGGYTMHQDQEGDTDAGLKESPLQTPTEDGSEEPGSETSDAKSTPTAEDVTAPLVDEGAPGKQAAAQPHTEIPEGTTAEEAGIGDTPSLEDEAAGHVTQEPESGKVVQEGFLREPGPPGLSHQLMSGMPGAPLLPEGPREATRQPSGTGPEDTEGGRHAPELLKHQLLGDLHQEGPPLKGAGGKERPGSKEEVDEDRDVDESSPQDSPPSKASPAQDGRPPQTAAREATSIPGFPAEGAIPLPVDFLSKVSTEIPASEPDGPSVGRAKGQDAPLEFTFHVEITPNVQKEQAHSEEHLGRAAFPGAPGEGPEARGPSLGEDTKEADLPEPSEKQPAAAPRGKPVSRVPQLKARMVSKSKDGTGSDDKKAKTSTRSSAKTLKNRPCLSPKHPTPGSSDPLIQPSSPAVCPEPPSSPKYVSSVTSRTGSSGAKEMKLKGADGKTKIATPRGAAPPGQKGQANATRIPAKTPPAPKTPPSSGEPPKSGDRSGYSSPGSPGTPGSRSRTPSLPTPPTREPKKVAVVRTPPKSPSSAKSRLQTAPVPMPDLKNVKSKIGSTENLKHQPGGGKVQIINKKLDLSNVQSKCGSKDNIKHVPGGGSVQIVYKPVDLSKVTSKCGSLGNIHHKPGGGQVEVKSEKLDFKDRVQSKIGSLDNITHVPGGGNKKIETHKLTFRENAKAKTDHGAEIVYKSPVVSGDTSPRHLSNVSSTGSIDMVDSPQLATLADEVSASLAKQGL

Legend:
Assay in all cases: log2 fold change, soluble protein after heating vs DMSO (PISA); higher = thermal stabilisation; K562 cells, 10 uM, 30 min; active = over 0.2 and 3.5 SD of the protein, either way, in both replicates (recomputed)
IRAK-1-4 Inhibitor I = compound: C1COCCN1CCN2C3=CC=CC=C3N=C2NC(=O)C4=CC(=CC=C4)[N+](=O)[O-] [IRAK-1-4 Inhibitor I]
In short: (§1)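 K562 cells (2×10^6 cells/mL) were treated with 10 μM compound for 30 min, and aliquots were heated for 3 min over 48°C-58°C. Pooled aliquots were extracted in PBS with 0.5% NP-40 at 4°C, and the supernatant after 21,000xg for 90 min was measured by TMTpro 16plex LC-MS/MS with channel sums equalised. Reported thermal stability, relative to control samples and from duplicates, is a log2 fold change.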

ibrutinib = compound: C=CC(=O)N1CCC[C@@H](n2nc(-c3ccc(Oc4ccccc4)cc3)c3c(N)ncnc32)C1 [ibrutinib]
In short: as §1

ralimetinib = compound: CC(C)(C)Cn1c(N)nc2ccc(-c3[nH]c(C(C)(C)C)nc3-c3ccc(F)cc3)nc21 [ralimetinib]
In short: as §1

[1] = compound: CC(C)(O)CC(=O)NCCn1ccc2ncnc(Nc3ccc(Oc4cccc(C(F)(F)F)c4)c(Cl)c3)c21
In short: as §1

[2] = compound: CC(C)C1=C2N=C(C=C(N2N=C1)NCC3=CC=CC=C3)NCCCCCCN
In short: as §1

[3] = compound: CC(C)C[C@@H](C=O)NC(=O)[C@H](CC(C)C)NC(=O)[C@H](CC(C)C)NC(=O)OCc1ccccc1
In short: as §1

pinometostat = compound: CC(C)N(C[C@H]1O[C@@H](n2cnc3c(N)ncnc32)[C@H](O)[C@@H]1O)[C@H]1C[C@@H](CCc2nc3cc(C(C)(C)C)ccc3[nH]2)C1 [pinometostat]
In short: as §1

[4] = compound: CC1=C(C(CC(=O)N1)C2=CC=C(C=C2)C(F)(F)F)C(=O)NC3=C(C=C4C(=C3)C=NN4)F
In short: as §1

[5] = compound: CC1=C(C=C(C=C1)NC(=O)C2=CC(=CC=C2)N(C)C)NC(=O)C3=CC=C(C=C3)O
In short: as §1

[6] = compound: CC1=CC=C(C=C1)SC2=C3C=C(SC3=CN=C2)C(=O)N
In short: as §1

[7] = compound: CC1=NC(=CC=C1)C2=C(N=C(N2)C(C)(C)C)C3=CC4=NC=CN=C4C=C3
In short: as §1

Nexturastat A = compound: CCCCN(Cc1ccc(C(=O)NO)cc1)C(=O)Nc1ccccc1 [Nexturastat A]
In short: as §1

[8] = compound: CCCS(=O)(=O)Nc1ccc(F)c(C(=O)c2c[nH]c3ncc(Cl)cc23)c1F
In short: as §1

[9] = compound: CCCc1cc(C)[nH]c(=O)c1CNC(=O)c1cc(-c2ccnc(N3CCN(C)CC3)c2)cc2c1cnn2C(C)C
In short: as §1

givinostat = compound: CCN(CC)Cc1ccc2cc(COC(=O)Nc3ccc(C(=O)NO)cc3)ccc2c1 [givinostat]
In short: as §1

barasertib = compound: CCN(CCCOc1ccc2c(Nc3cc(CC(=O)Nc4cccc(F)c4)[nH]n3)ncnc2c1)CCOP(=O)(O)O [barasertib]
In short: as §1

[10] = compound: CC(=O)c1cnc2ccc(-c3cc(Cl)c(O)c(Cl)c3)nc2c1N[C@H]1CC[C@H](CN(C)C)CC1
In short: as §1

[11] = compound: CC1=C(C2=C(C=C1)C(=O)C3=CC=CC=C3N2CCCN)C
In short: as §1

vemurafenib = compound: CCCS(=O)(=O)Nc1ccc(F)c(C(=O)c2c[nH]c3ncc(-c4ccc(Cl)cc4)cc23)c1F [vemurafenib]
In short: as §1

[12] = compound: CC1=C(C=C(C=C1)NC(=O)C2=CC(=CC=C2)C(C)(C)C#N)NC3=CC4=C(C=C3)N=CN(C4=O)C
In short: as §1

| Target | log2 fold change (IRAK-1-4 Inhibitor I) | log2 fold change (ibrutinib) | log2 fold change (ralimetinib) | log2 fold change [1] | log2 fold change [2] | log2 fold change [3] | log2 fold change (pinometostat) | log2 fold change [4] | log2 fold change [5] | log2 fold change [6] | log2 fold change [7] | log2 fold change (Nexturastat A) | log2 fold change [8] | log2 fold change [9] | log2 fold change (givinostat) | log2 fold change (barasertib) | log2 fold change [10] | log2 fold change [11] | log2 fold change (vemurafenib) | log2 fold change [12] |
| --- | --- | --- | --- | --- | --- | --- | --- | --- | --- | --- | --- | --- | --- | --- | --- | --- | --- | --- | --- | --- |
| MAGEA1 (UniProt P43355) | inactive: -0.081 | inactive: 0.06 | inactive: 0.058 | inactive: 0.053 | inactive: -0.396 | inactive: 0.127 | inactive: 0.261 | inactive: -0.03 | inactive: -0.057 | inactive: 0.015 | inactive: 0.001 | inactive: 0.391 | inactive: 0.056 | inactive: 0.04 | inactive: 0.065 | inactive: 0.054 |  |  |  |  |
| MAD1L1 (UniProt Q9Y6D9) | inactive: -0.01 | inactive: 0.115 | inactive: 0.275 | inactive: -0.133 | inactive: -0.18 | inactive: 0.231 | inactive: 0.014 |  | inactive: -0.074 | inactive: 0 | inactive: -0.101 | inactive: -0.041 | inactive: 0.009 | inactive: 0.169 | inactive: 0.105 | inactive: -0.091 | inactive: -0.036 | inactive: 0.132 | inactive: 0.081 |  |
| MAP4K4 isoform 3 (UniProt O95819) | inactive: 0 | inactive: 0.043 | inactive: -0.039 | inactive: -0.023 | inactive: -0.027 | inactive: 0.024 | inactive: 0.046 |  | inactive: 0.013 | inactive: 0.022 | inactive: 0.012 | inactive: 0.033 | inactive: 0.028 | inactive: -0.02 | inactive: 0.017 | inactive: -0.012 | active: -1.13 | inactive: 0.073 | inactive: -0.007 | inactive: -0.166 |
| LSS (UniProt P48449) | inactive: -0.119 | inactive: -0.087 | inactive: 0.147 | inactive: 0.099 | inactive: 0.199 | inactive: 0.077 | inactive: -0.116 |  | inactive: -0.122 | inactive: -0.071 | inactive: 0.054 | inactive: 0.012 | inactive: 0.073 | inactive: 0 | active: 0.766 | inactive: 0.382 | inactive: -0.084 | inactive: -0.195 | inactive: 0.03 | inactive: -0.032 |
| MAP4K3 (UniProt Q8IVH8) | inactive: -0.016 | inactive: -0.34 |  |  | inactive: -0.081 |  | inactive: 0.03 |  |  |  | inactive: 0.015 |  |  |  | inactive: 0.069 | inactive: -0.049 |  |  | inactive: -0.193 | inactive: 0.091 |
| LTV1 (UniProt Q96GA3) | inactive: -0.101 | inactive: -0.009 | inactive: 0.134 | inactive: 0.001 | inactive: -0.233 | inactive: 0.104 | inactive: 0.249 |  | inactive: -0.04 | inactive: -0.04 | inactive: -0.035 | inactive: 0.248 | inactive: -0.008 | inactive: -0.011 | inactive: -0.025 | inactive: -0.075 | inactive: 0.224 | active: -0.726 | inactive: -0.075 | inactive: 0.044 |
| LRRC8E (UniProt Q6NSJ5) | inactive: 0.036 | inactive: -0.058 | inactive: 0.126 | inactive: 0.031 | inactive: 0.154 | inactive: -0.033 | inactive: 0.054 |  | inactive: -0.011 | inactive: -0.043 | inactive: -0.064 | inactive: 0.106 | inactive: -0.09 | inactive: -0.008 | inactive: -0.151 | inactive: -0.047 |  | inactive: 0.128 | inactive: -0.065 | inactive: 0.085 |
| MAP4K2 (UniProt Q12851) | inactive: 0.073 | inactive: -0.071 |  |  |  |  | inactive: 0.113 |  |  | inactive: 0.079 | inactive: 0.094 |  | inactive: 0.043 |  |  | inactive: 0.218 |  | inactive: 0.021 |  | inactive: -0.034 |
| MAGEA9 (UniProt P43362) | inactive: 0.008 | inactive: -0.094 | inactive: 0 | inactive: 0.031 | inactive: -0.256 | inactive: 0.087 | inactive: 0.009 |  | inactive: 0.05 | inactive: -0.005 | inactive: -0.087 | inactive: 0.005 | inactive: 0.072 | inactive: 0.054 | inactive: 0.066 | inactive: 0.036 | inactive: 0.101 | active: -0.49 | inactive: -0.031 | inactive: -0.033 |
| LYRM1 (UniProt O43325) | inactive: 0.014 | inactive: -0.027 | inactive: -0.041 | inactive: -0.01 | inactive: -0.001 | inactive: -0.03 | inactive: 0.013 | inactive: -0.033 | inactive: 0.007 | inactive: -0.068 | inactive: -0.026 | inactive: -0.071 | inactive: -0.028 | inactive: -0.043 | inactive: 0 | inactive: 0.063 |  | inactive: -0.048 | inactive: -0.04 | inactive: -0.046 |
| LSG1 (UniProt Q9H089) | inactive: -0.168 |  | inactive: 0.067 | inactive: 0.002 | inactive: -0.472 | inactive: 0.276 | inactive: 0.386 |  | inactive: 0.077 | inactive: 0.188 | inactive: -0.06 | inactive: 0.37 | inactive: 0.003 | inactive: 0.093 | inactive: 0.09 |  | inactive: -0.118 | inactive: -0.018 | inactive: -0.027 |  |
| LYPLA1, A0A087X1K9 |  |  | inactive: -0.018 |  |  | inactive: -0.123 |  |  | inactive: 0.108 |  |  |  |  | inactive: -0.184 |  |  |  |  |  |  |
| MAP3K3 isoform 2 (UniProt Q99759) |  |  | inactive: -0.004 | inactive: -0.27 | inactive: -0.074 | inactive: -0.01 |  | inactive: 0.072 | inactive: -0.049 |  |  | inactive: -0.116 |  | inactive: 0.058 | inactive: -0.085 |  |  | inactive: 0.068 | inactive: 0.162 | inactive: -0.166 |
| LSR isoform 3 (UniProt Q86X29) |  |  |  |  |  |  |  |  |  | inactive: 0.04 |  |  | inactive: 0.158 | inactive: -0.081 |  |  |  | inactive: -0.106 |  | inactive: -0.232 |
| MAP3K20 isoform 2 (UniProt Q9NYL2) | inactive: -0.164 |  |  | inactive: 0.078 | inactive: 0.089 |  | inactive: -0.021 |  |  | inactive: -0.038 | inactive: 0.295 | inactive: 0.16 | inactive: 0.044 | inactive: -0.017 | inactive: 0.003 |  | inactive: -0.126 | inactive: -0.071 |  | active: -0.375 |
| MAPT isoform 9 (UniProt P10636) |  | inactive: 0.043 |  | inactive: 0.086 | inactive: 0.036 |  |  |  |  | inactive: -0.081 |  | inactive: -0.134 | inactive: -0.005 |  | inactive: -0.128 | inactive: 0.055 | inactive: 0.065 |  | inactive: -0.022 | inactive: -0.004 |

Laid out differently: entries from further up.
Target | log2 fold change (IRAK-1-4 Inhibitor I) | log2 fold change (ibrutinib) | log2 fold change (ralimetinib) | log2 fold change [1] | log2 fold change [2] | log2 fold change [3] | log2 fold change (pinometostat) | log2 fold change [4] | log2 fold change [5] | log2 fold change [6] | log2 fold change [7] | log2 fold change (Nexturastat A) | log2 fold change [8] | log2 fold change [9] | log2 fold change (givinostat) | log2 fold change (barasertib) | log2 fold change [10] | log2 fold change [11] | log2 fold change (vemurafenib) | log2 fold change [12]
MAGEA1 (UniProt P43355) | inactive: -0.081 | inactive: 0.06 | inactive: 0.058 | inactive: 0.053 | inactive: -0.396 | inactive: 0.127 | inactive: 0.261 | inactive: -0.03 | inactive: -0.057 | inactive: 0.015 | inactive: 0.001 | inactive: 0.391 | inactive: 0.056 | inactive: 0.04 | inactive: 0.065 | inactive: 0.054 |  |  |  | 
MAD1L1 (UniProt Q9Y6D9) | inactive: -0.01 | inactive: 0.115 | inactive: 0.275 | inactive: -0.133 | inactive: -0.18 | inactive: 0.231 | inactive: 0.014 |  | inactive: -0.074 | inactive: 0 | inactive: -0.101 | inactive: -0.041 | inactive: 0.009 | inactive: 0.169 | inactive: 0.105 | inactive: -0.091 | inactive: -0.036 | inactive: 0.132 | inactive: 0.081 | 
MAP4K4 isoform 3 (UniProt O95819) | inactive: 0 | inactive: 0.043 | inactive: -0.039 | inactive: -0.023 | inactive: -0.027 | inactive: 0.024 | inactive: 0.046 |  | inactive: 0.013 | inactive: 0.022 | inactive: 0.012 | inactive: 0.033 | inactive: 0.028 | inactive: -0.02 | inactive: 0.017 | inactive: -0.012 | active: -1.13 | inactive: 0.073 | inactive: -0.007 | inactive: -0.166
